Laboratory results taken from patent publication US20250122311A1 (YEDA RESEARCH AND DEVELOPMENT, published 2025).
No constants are given. Whether binding was seen depends on the method and setting. Some results given as binding are weak or reduced against the parent protein; the word gives no strength. Values belong to the binder of their own block, whether it stands above or below them.

Assays:
hen-egg white lysozyme [1] = molecular target: T1, hen-egg white lysozyme (hen, UniProt P00698 19-147); assay: bilayer interferometry, antibody loaded on the sensor, lysozyme at 1000, 250, 100, 25 and 10 nM
T1 construct: also called HEWL

hen-egg white lysozyme [2] = molecular target: T1, hen-egg white lysozyme; assay: yeast surface display of scFv, 240 nM lysozyme

binding (hen-egg white lysozyme [1]): binds
B1: Anti-HEWL Design 1, human IgG1 (antibody, V domains shown)
VH: EVQLVQSGAEVKKPGATVKISCKVSGYTFSTYWMEWVQQAPGKGLEWMGEVLPGSGSTYYAEKFQGRVTITADTSTDTAYMELSSLRSEDTAVYYCARGDGYFQHWGQGTLVTVSS
VL: DIQMTQSPSSLSASVGDRVTITCRASQSISSNLNWYQQKPGKAPKLLIYYASSLQSGVPSRFSGSGSGTDFTLTISSLQPEDFATYYCQQSNSWPRTFGPGTKVDIKR
notes: also called Des 1; Des1

binding (hen-egg white lysozyme [2]): binds
B2: Anti-HEWL Design 1, scFv on yeast surface (scFv, V domains shown, not shown: large carriers; small tags and cut ends)
VH: B1 VH
VL: DIQMTQSPSSLSASVGDRVTITCRASQSISSNLNWYQQKPGKAPKLLIYYASSLQSGVPSRFSGSGSGTDFTLTISSLQPEDFATYYCQQSNSWPRTFGPGTKVDIK
